Experimental data: PubChem BioAssay AID686943 (Drosophila RNAi Screening Center, 2013)

Screen: 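Search across the genome for regulators of signalling from receptor tyrosine kinase to ERK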 (primary screen)
System: Drosophila S2R+ haemocyte-like cells expressing YFP-tagged ERK (Rolled)
Reagents: long dsRNA against Drosophila genes
Treatment: insulin stimulation versus unstimulated cells; dose and duration not given
Measured: 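Per-plate z-scores of phospho-ERK immunostaining normalised to YFP-tagged ERK, measured with and without insulin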
Direction: replicate 1, z-score of dpERK with insulin and replicate 2, z-score of dpERK with insulin: higher = more active ERK per ERK-YFP after insulin; replicate 1, z-score of dpERK under basal conditions: higher = more basal active ERK per ERK-YFP; replicate 1, z-score of ERK-YFP with insulin: higher = more YFP-tagged ERK signal
The screen tested about 23,000 reagents; below is an unselected part of those that have a named target and a result. 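Extra replicates exist only for a retested subset of genes; insulin dose and duration not given; both raised and lowered dpERK matter.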 Reagents against one gene are numbered here. A plus sign joins genes that one reagent is predicted to hit. No sequences are given here. Not stated in the record: the amount of reagent, the time to read-out.

Target gene | reagent | replicate 1, z-score of dpERK with insulin | replicate 2, z-score of dpERK with insulin | replicate 1, z-score of dpERK under basal conditions | replicate 1, z-score of ERK-YFP with insulin
CG18324 | 1 | -0.03 | -0.56 | 0.52 | 0.73
CG34178 + CG34177 | 1 | 0 | -0.07 | -0.16 | -0.42
CG6454 | 1 | 0.39 | -0.24 | -0.4 | -0.07
CG32462 + asRNA:CR43426 | 1 | 0.46 | -0.61 | -0.59 | 0.26
Zfrp8 (Zinc finger protein RP-8) | 1 | -0.16 | 0.39 | 1.28 | -0.32
Tsf3 (Transferrin 3) | 1 | 0 | 0.17 | 0.31 | 0.12
CG9902 | 1 | 0.22 | -0.27 | 0.45 | -0.06
CG34370 | 1 | 0.27 | 0.26 | -0.42 | -0.21
CG34370 | 2 | 0.82 | -0.46 | 0.19 | -0.05
CG34370 | 3 | -0.58 | -0.74 | -0.65 | 0.74
CG34370 | 4 | -1.14 | 0.01 | -0.14 | 1.72
EMC2B (ER membrane protein complex subunit 2B) | 1 | -1.03 | 0.5 | 1.92 | 0.45
CG6709 + Hez | 1 | 0.87 | 0.06 | 0.21 | -0.02
CG6709 + Hez | 2 | 0.64 | 0.46 | 0.24 | -0.23
mRpS14 (mitochondrial ribosomal protein S14) | 1 | 0.42 | -0.31 | -0.72 | 1.55
CG8197 | 1 | 0.48 | 0.43 | -0.31 | 0.32
Gcna (Germ cell nuclear acidic peptidase) | 1 | 0.46 | 0.51 | -0.5 | -0.54
Dbp45A (DEAD box protein 45A) | 1 | 1 | 0.65 | -0.64 | -0.06
CG31715 | 1 | 1.75 | 0.82 | 0.07 | -0.78
CG7910 | 1 | 0.78 | 1.17 | -0.15 | -0.6
Rpn1 (Regulatory particle non-ATPase 1) | 1 | -1.89 | -4.22 | -3.23 | 0.23
COX6AL (Cytochrome c oxidase subunit 6A-like) | 1 | -0.15 | 0.63 | -0.65 | 0.14
CG18467 | 1 | -0.37 | 0.03 | 0.46 | 0.75
CG15890 | 1 | -0.18 | -0.4 | 1.09 | -0.04
Pld3 (Phospholipase D family member 3) | 1 | 0.21 | -0.04 | -0.17 | -0.28
CG14797 | 1 | 0.75 | 1.48 | 0.38 | -0.17
CG34030 | 1 | 0.14 | -1.06 | -0.54 | -0.09
CycT (Cyclin T) | 1 | 5.37 | 2.84 | -0.94 | -2.25
H2.0 (Homeodomain protein 2.0) | 1 | -3.54 | 0.28 | 0.83 | 0.29
H2.0 (Homeodomain protein 2.0) | 2 | 0.57 | 0.59 | -1.11 | 0.41
CG5618 | 1 | -0.05 | -0.22 | -0.73 | 0.24
CG13405 | 1 | 1.18 | 0.07 | -0.51 | -1.31
Gem3 (Gemin 3) | 1 | -0.76 | -1.56 | -1.54 | 0.71
CG5023 | 1 | 0 | 0.62 | 1.55 | 0
CG7720 | 1 | -0.17 | 1.17 | -0.3 | 0.82
CG7720 | 2 | 0.63 | 1.36 | 0.43 | 0.32
CG13833 | 1 | -0.35 | -0.19 | 0.69 | 0.4
CG12880 | 1 | -0.78 | -0.34 | 0.48 | -3.07
Act5C (Actin 5C) | 1 | -1.2 | -3.38 | -2.38 | 1.42
CG11300 | 1 | -0.21 | -0.22 | 0.74 | 0.14
loaf (lost and found) | 1 | -0.06 | 0.41 | -0.37 | -0.04
CG8349 | 1 | -0.48 | 0.42 | 0.37 | 0.35
CG31253 + CG31131 | 1 | -0.34 | 0.97 | 0.66 | 0.22
psq (pipsqueak) | 1 | -3.34 | -4.73 | -3.32 | -3.83
CR33319 (pseudo) | 1 | 2.25 | 0.7 | -0.14 | -0.8
CG42249 | 1 | 0.38 | -0.24 | -1.09 | 0.1
CG42249 | 2 | -0.23 | 1.01 | -0.37 | 0.36
SdhB (Succinate dehydrogenase, subunit B (iron-sulfur)) | 1 | 0.18 | 0.16 | -0.66 | 0.06
SdhB (Succinate dehydrogenase, subunit B (iron-sulfur)) | 2 | 0.37 | 0.26 | -0.08 | 0.69
yata | 1 | 0.4 | 0.02 | -0.37 | 0.06
CG11030 | 1 | 1.56 | 1.11 | 2.17 | -1.41
CG17292 | 1 | 0.09 | -0.24 | -0.46 | -0.83
CG17230 | 1 | 0.38 | 0.09 | 0.26 | -1.64
CG6951 | 1 | -0.15 | 0.07 | 0.58 | 1.22
Def (Defensin) | 1 | 0.22 | -0.09 | 0.76 | 0.25
mod (modulo) | 1 | -0.07 | 0.01 | -0.24 | 0.11
CG13203 | 1 | -0.19 | 0.67 | 0.16 | 0.27
CG1275 | 1 | -0.72 | 0.03 | 0.95 | -1.76
CG34304 (retired record) | 1 | -0.42 | 0.05 | 1.02 | 0.2
CG14931 | 1 | -0.79 | -0.69 | 0 | -0.13
CG10936 | 1 | 0.31 | 0.23 | 0.7 | 0.01
CG10936 | 2 | 0.9 | 0.38 | 1.07 | 0.17
CG10936 | 3 | 0.95 | 1.28 | -0.3 | -0.09
CG10866 | 1 | 0.34 | 0.25 | -0.01 | 0.25
CG18599 | 1 | 1.5 | -0.17 | -0.34 | -0.28
CG18599 | 2 | -4.28 | -4.92 | 3.02 | -5.12
CG10761 | 1 | 0.18 | 0.68 | 0.12 | 0.25
rin (rasputin) | 1 | 1.14 | 0.3 | -0.77 | 0.22
Cyp4e2 (Cytochrome P450 4e2) | 1 | -0.13 | 0.05 | -0.61 | 0.38
CG14042 + SP555 | 1 | 1.47 | 0.8 | -0.06 | 2.07
CG14042 + SP555 | 2 | 0.56 | 0.34 | 0.48 | -0.55
CG11113 | 1 | 0.42 | 0.3 | -0.8 | 0.33
CG12091 | 1 | 0.18 | 0.34 | -0.48 | 0.19

Copied from the list:
For “replicate 2, z-score of dpERK with insulin”, CG5023 reads 0.62
Result of mod (modulo) under “replicate 1, z-score of ERK-YFP with insulin”: 0.11
CycT (Cyclin T), replicate 2, z-score of dpERK with insulin = 2.84
Value for Def (Defensin) under “replicate 1, z-score of dpERK under basal conditions”: 0.76
For “replicate 1, z-score of ERK-YFP with insulin”, CG31253 + CG31131 reads 0.22
Result for CG14042 + SP555 #1 in “replicate 1, z-score of ERK-YFP with insulin”: 2.07
